The target in this experiment is T1, full-length PARN (His-PARN) (UniProt O95453).
T1 sequence: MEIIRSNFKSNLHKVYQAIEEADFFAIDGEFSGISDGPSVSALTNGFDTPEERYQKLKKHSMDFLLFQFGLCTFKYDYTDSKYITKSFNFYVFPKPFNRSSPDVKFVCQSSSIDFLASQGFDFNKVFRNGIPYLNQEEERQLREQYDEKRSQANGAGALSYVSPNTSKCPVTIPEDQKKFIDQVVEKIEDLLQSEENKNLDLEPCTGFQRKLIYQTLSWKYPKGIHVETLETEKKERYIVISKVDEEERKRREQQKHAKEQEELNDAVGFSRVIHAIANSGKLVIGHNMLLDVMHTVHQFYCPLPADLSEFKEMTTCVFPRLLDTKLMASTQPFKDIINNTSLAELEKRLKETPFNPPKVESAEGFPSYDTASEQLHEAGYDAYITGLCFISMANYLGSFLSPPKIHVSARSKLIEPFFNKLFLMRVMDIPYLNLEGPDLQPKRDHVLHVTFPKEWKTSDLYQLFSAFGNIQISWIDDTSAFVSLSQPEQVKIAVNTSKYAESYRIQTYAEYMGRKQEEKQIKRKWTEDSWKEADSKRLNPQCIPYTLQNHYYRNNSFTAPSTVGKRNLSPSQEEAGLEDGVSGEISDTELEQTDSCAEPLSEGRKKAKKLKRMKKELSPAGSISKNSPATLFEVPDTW
Kind of experiment: pull-down; 2 ug of His- or GST-fusion protein bound to beads incubated with 200 ug nuclear extract of HCT116 cells, untreated or UV-treated; NEs treated with RNase A; immunoblot; only the target purified. (In general: In western blotting, separated proteins are transferred to a membrane and probed.)

Chains of the proteins cited; added tags and fusions are not shown.
UniProt Q13526: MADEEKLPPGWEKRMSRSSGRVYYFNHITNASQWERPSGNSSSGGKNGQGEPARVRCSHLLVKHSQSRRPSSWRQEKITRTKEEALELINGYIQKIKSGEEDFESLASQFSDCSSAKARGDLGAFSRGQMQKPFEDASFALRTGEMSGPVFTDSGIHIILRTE

These are yes or no findings as the source states them, for the method shown. In cells and extracts the contact can be indirect. Some entries that bind do so weakly or less than the wild type. Sequences can lack the tags named with a protein.

As for “tumor suppressor p53, endogenous nuclear (from UniProt P04637 1-393)”, the binding result is “binds”. For the substance “peptidyl-prolyl isomerase Pin1, endogenous nuclear (from UniProt Q13526 1-163) (enzyme)”, the binding entry is recorded as “binds”.
